From US20140371142A1
Results are given in words; binding and its absence hold for the method and conditions named. Some binding calls cover weakened binding; strength is not graded here. Where a sequence is shown, tags or fusion partners need not be part of it.

How the values were obtained:
[1] = target: T1, HA epitope-tagged CTRP12 (mouse) (UniProt Q8R2Z0); assay: immunoprecipitation then immunoblot, FIG. 4E legend
T1 sequence: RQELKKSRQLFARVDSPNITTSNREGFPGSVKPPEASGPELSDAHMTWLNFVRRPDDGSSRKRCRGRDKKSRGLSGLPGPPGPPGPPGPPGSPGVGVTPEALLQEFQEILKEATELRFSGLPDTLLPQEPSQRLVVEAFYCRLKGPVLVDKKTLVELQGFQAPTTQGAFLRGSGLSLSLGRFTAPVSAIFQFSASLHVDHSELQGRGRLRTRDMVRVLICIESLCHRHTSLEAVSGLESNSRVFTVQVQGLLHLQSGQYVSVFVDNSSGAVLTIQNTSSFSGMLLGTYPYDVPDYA

[2] = target: T1, HA epitope-tagged CTRP12 (mouse); assay: co-expression in HEK 293T cells, immunoprecipitation then immunoblot of supernatants (FLAG / HA tags)

B1: FLAG epitope-tagged mouse myonectin (CTRP15) (ligand)
chain: LGVPESAEPVGTHARPQPPGAELPAPPANSPPEPTIAHAHSVDPRDAWMLFVKQSDKGINSKRRSKARRLKLGLPGPPGPPGPQGPPGPFIPSEVLLKEFQLLLKGAVRQRESHLEHCTRDLTTPASGSPSRVPAAQELDSQDPGALLALLAATLAQGPRAPRVEAAFHCRLRRDVQVDRRALHELGIYYLPEVEGAFHRGPGLNLTSGQYTAPVAGFYALAATLHVALTEQPRKGPTRPRDRLRLLICIQSLCQHNASLETVMGLENSSELFTISVNGVLYLQAGHYTSVFLDNASGSSLTVRSGSHFSAILLGLDYKDDDDK
modifications: N-linked glycans (sites not given)
With B1 the binding [1] was “binds” and the binding [2] was “binds”.
